# Data from PubChem BioAssay AID540276 (National Center for Advancing Translational Sciences (NCATS), 2011).
# Where “and” joins values, the source holds several entries; their conditions need not be identical. Identical values can stand only once. About 5,400 (1.8%) of roughly 300,000 compounds were called active. The shares of active, inactive and inconclusive entries below differ from those in the screen. Calls come from the whole dose curve; tested in HEK293 cells. Potencies beside an inconclusive call are fits to weak or partial responses and may not hold up.
# Experiment: qHTS for inhibitors of binding or entry into cells for Marburg Virus
# Conditions: Marburg virus pseudotyped entry inhibition, cell reporter; activity change, negative = inhibition: at 37.8 µM (top of the series) unless noted
# % is set by controls: 0 for no effect and ±100 for the full control effect; potency is the fitted concentration of half-maximal effect.
Compound,"activity change, negative = inhibition",Potency
COc1cccc(NC(=O)COC(=O)c2nc3nccc(C)n3n2)c1,inactive: -3.04%,
CCOc1ccc(-c2nc[nH]c2[N+](=O)[O-])cc1,,"inconclusive: 1.26 µM [activator, partial curve, poor fit]"
CCOc1ccc(NC(=O)CNC(=O)c2ccc(OC)c(OC)c2)cc1,,"inconclusive: 3.98 µM [inhibitor, single point]"
Cc1c(C=O)c(=O)n(-c2ccccc2)n1-c1ccccc1,,"inconclusive: 12.6 µM [activator, single point]"
COc1ccccc1-c1nnc2sc(C3CCCCC3)nn12,,"inconclusive: 1.16 µM [inhibitor, single point]"
CCn1c(-c2cc(Cl)ccc2OC)n[nH]c1=S,,"inconclusive: 0.501 µM [activator, full curve, poor fit]"
CCOC(=O)Cc1cc(-c2ccccc2)nc2ccc3ccccc3c12,,"inconclusive: 3.16 µM [inhibitor, single point]"
Cc1cc(C)cc(N=c2c([N+](=O)[O-])nn(-c3ccc4c(c3)OCCO4)n2O)c1,,"inconclusive: 8.91 µM [inhibitor, partial curve, poor fit]"
O=C(Nc1ccc(CN2CCOCC2)cc1)c1cc2ccccn2n1,,"inconclusive: 6.51 µM [inhibitor, full curve, poor fit]"
COC(=O)c1ccc(/C=N/N2C(C)CCCC2C)cc1 (configuration not stated),,"inconclusive: 3.55 µM [activator, single point]"
c1ccc(Nc2nc(-c3ccccn3)cs2)cc1,,"inconclusive: 1.26 µM [activator, single point]"
CCOc1ccc(-c2csc(NNC3=NCCCCC3)n2)cc1,,"inconclusive: 22.4 µM [inhibitor, single point]"
CC(C)(C)OC(=O)N/N=C\c1ccc(OC(=O)c2ccco2)cc1,,"inconclusive: 35.5 µM [inhibitor, single point]"
Cc1ccccc1Cn1nc(C)c(NC(=O)c2noc3c2CC(C(C)(C)C)CC3)c1C (configuration not stated),,"inconclusive: 9.2 µM [inhibitor, partial curve, poor fit]"
O=C1Cc2c([nH]c3ccc(Br)cc23)-c2ccccc2N1,,"inactive and inconclusive: 461 nM [activator, partial curve] and inconclusive: 178 nM [activator, full curve]"
Cc1ccc(-c2nnc(CSc3nc(C(C)C)nc4sc(C)c(C)c34)o2)cc1,,"inconclusive: 4.47 µM [activator, partial curve, poor fit]"
CCNC(=O)C(=O)N/N=C/c1cc([N+](=O)[O-])ccc1O,,"inconclusive: 35.5 µM [activator, single point]"
C=CCn1c(O)c(N=NC(=S)Nc2cccc(C)c2)c2ccccc21,,"inconclusive: 0.366 µM [inhibitor, full curve, poor fit]"
CN(Cc1ccco1)C(=O)C(Cc1ccccc1)NS(=O)(=O)c1ccc2c(c1)CCC(=O)N2 (configuration not stated),inactive: 4.08%,
OCCN=c1cc(-c2ccccc2)oc2ccc(Cl)cc12,,"inconclusive: 31.6 µM [inhibitor, single point]"
CCOc1ccc2c(c1)-c1c(ssc1=S)C(C)(C)N2C(=O)c1ccco1,,active: 5.17 µM

Compound,"activity change, negative = inhibition",Potency
Cn1ncc(S(=O)(=O)Cc2ccccc2)c(Br)c1=O,inactive: -18.4%,
Oc1ccc2c(c1)c1ccccc1c1ncccc21,inactive: 5.78%,
COC(=O)c1ccc(C(=O)OC)c(NC(=O)c2cccnc2)c1,,"inconclusive: 0.708 µM [inhibitor, single point]"
N#Cc1ccccc1Cn1c(=O)n(C2CCCC2)c(=O)c2ccccc21,inactive: -2.12%,
Cc1ccc(C(=O)NCC(=O)OC(C)C(=O)NCCC2=CCCCC2)cc1C (configuration not stated),,"inconclusive: 3.16 µM [activator, single point]"
Cc1ccc(N2C(N)=NC(N)=NC2(C)C)c(C)c1,inactive: 3.23%,
O=[N+]([O-])c1ccc(CN2CCN(Cc3c[nH]c4ccccc34)CC2)cc1,,"inconclusive: 10 µM [inhibitor, partial curve, poor fit]"
Cc1ccc2nsnc2c1NS(=O)(=O)c1c(C)ccc2nsnc12,inactive: -18%,
O=C(O)Cn1cnc2c(oc3ccccc32)c1=O,inactive: 0.565%,
O=C(Nc1ccc2c(c1)OCCO2)c1oc2ccccc2c1NC(=O)C1CC1,,"inconclusive: 1 µM [inhibitor, single point]"
Cc1ccccc1N1CCN(C2CCCN(C(=O)c3ccccn3)C2)CC1 (configuration not stated),,"inconclusive: 35.5 µM [inhibitor, single point]"
CCn1c(COc2ccc(C)cc2)nnc1SCC(=O)Nc1cc(OC)ccc1OC,,"inconclusive: 8.2 µM [inhibitor, partial curve]"
Cc1cc(OCC(O)CN2CCc3ccccc3C2)ccc1Cl (configuration not stated),,"inconclusive: 35.5 µM [inhibitor, partial curve, poor fit]"
CCOCCCNC(=O)Cn1nc(C)n2c(cc3cc(C)ccc32)c1=O,inactive: -13% [at 46.1 µM],
CC(C)(C)c1cc(C(=O)NNc2ccc(OC(F)(F)F)cc2)n(Cc2ccccc2)n1,,"inconclusive: 20 µM [inhibitor, single point]"
O=C(CSc1nnc(SCc2ccc(Cl)cc2)s1)N/N=C/c1c[nH]c2ccccc12,,"inconclusive: 0.0891 µM [inhibitor, full curve, poor fit]"
O=C(CSCc1ccccc1Cl)NNC(=S)Nc1ccccc1,inactive: 13%,
O=C(CSc1nc2ccc(Nc3nc(N4CCOCC4)nc(N4CCOCC4)n3)cc2s1)NCc1ccco1,,"inconclusive: 8.91 µM [inhibitor, partial curve, poor fit]"
COc1ccc(N2CCN(C(=O)COC(=O)c3cccc(S(=O)(=O)Nc4ccccc4OC)c3)CC2)cc1,,"inconclusive: 20 µM [inhibitor, single point]"
CCN(CC(=O)NCc1ccc(Cl)cc1)C(=O)c1oc2ccccc2c1C,,"inconclusive: 35.5 µM [inhibitor, single point]"
O=C(Nc1ccccc1F)c1ccc([N+](=O)[O-])s1,,"inconclusive: 2.24 µM [inhibitor, full curve, poor fit]"
